# According to PubChem BioAssay AID1487 (National Center for Advancing Translational Sciences (NCATS), 2009):
# Several values for one entry are separate records, joined by “and”; a condition that tells them apart may be missing. Identical values can stand only once. The list shows a part of the results. The main result of the screen is listed elsewhere. These columns were measured beside it and carry no call. The list favours compounds with an active or inconclusive main result. Potencies come from curve fits of mixed quality, noted in brackets.
# Assay: qHTS Assay for Modulators of Lamin A Splicing
# Settings: HeLa LMNA splicing GFP/RFP minigene ratio, 48 h
# How it was run: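 S3 HeLa stable clones carrying a lamin A-EGFP splicing minigene plus DsRed2 were seeded at 600 cells/well in Opti-MEM with 2% FBS, pin-dosed and incubated 48 h at 37°C. Acumen cytometry (488 nm) gave the GFP/RFP total-intensity ratio.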
# [1] = measured here: RFP viability control channel
# [2] = measured here: GFP splicing reporter channel
SMILES,AC50 [1],AC50 [2]
Cc1cc(C)cc(N2C(=O)NC(=O)/C(=C/c3cccn3-c3ccc(Cl)cc3)C2=O)c1,"2.82 µM [rising, full curve, poor fit]",–
Cc1ccc(/C=C/C(=O)C2C(=O)c3ccccc3C2=O)cc1,"35.5 µM [falling, single point]",–
COc1ccc(C)cc1NC(=O)c1cccn(Cc2ccccc2Cl)c1=O,–,"6.31 µM [falling, partial curve, poor fit]"
CCOc1cc(C2NCc3ccccc3-n3cccc32)ccc1O (centres undefined),"35.5 µM [rising, single point]",–
CCC(=NC(C)c1ccccc1)c1c(O)n(C)c(=O)n(C)c1=O (centres undefined),"7.08 µM [rising, partial curve]","3.16 µM [rising, full curve]"
NC(=Nc1ccccc1)Nc1ccccc1,"0.631 µM [rising, full curve]","0.891 µM [rising, full curve, poor fit]"
N#CC(C#N)=Cc1ccc(O)c(O)c1,–,"22.4 µM [falling, single point]"
CC(C)[C@H]1C(=O)N2CCC[C@H]2[C@]2(O)O[C@](NC(=O)[C@@H]3C=C4c5cccc6[nH]cc(c56)C[C@H]4N(C)C3)(C(C)C)C(=O)N12,"5.62 µM [rising, single point]",–
Cc1oc(-c2ccccc2)nc1CN1C(=O)C(C)N=C(c2ccccc2F)c2cc(Cl)ccc21 (centres undefined),"35.5 µM [rising, single point]","22.4 µM [rising, single point]"
CCCN1CCc2cc(O)cc3c2C1Cc1ccc(O)c(O)c1-3 (centres undefined),"11.2 µM [falling, partial curve]","11.2 µM [falling, partial curve]"
CCN[C@]1(c2cccs2)CCCCC1=O,"11.2 µM [falling, single point]","0.00282 µM [falling, full curve, poor fit]"
CCNC(=O)NC(=O)C(C)OC(=O)c1c(C)nn(Cc2ccccc2Cl)c1Cl (centres undefined),"15.8 µM [rising, single point]","12.6 µM [rising, single point]"
CCn1c(O)c(/C(C)=N/N2CCCCC2c2cccnc2)c(=O)[nH]c1=S (centres undefined),"22.4 µM [rising, single point]",–
COP(=O)(OC)OC=C(Cl)Cl,"1.58 µM [rising, partial curve]","8.91 µM [rising, partial curve, poor fit]"
CC(C)C(Br)C(=O)NC(N)=O (centres undefined),"0.000794 µM [rising, full curve, poor fit]","20 µM [falling, single point]"
CCOP(=S)(OCC)SCn1c(=O)oc2cc(Cl)ccc21,"22.4 µM [rising, single point]","11.2 µM [falling, partial curve, poor fit]"
NC(=O)CI,"35.5 µM [falling, single point]","35.5 µM [falling, single point]"
C[N+]1(C)C2CC[C@H]1CC(OC(=O)[C@@H](CO)c1ccccc1)C2 (some centres undefined),–,"0.00891 µM [falling, full curve, poor fit]"

SMILES,AC50 [1],AC50 [2]
CC(C)NCC(O)COc1cccc2[nH]ccc12 (centres undefined),"126 nM [falling, single point] and 6.31 µM [falling, single point]",–
CCCC(O)C(CC)CO (centres undefined),"35.5 µM [falling, single point]","2.51 µM [falling, single point]"
[Cl-].[Cl-].[Hg+2],"1.26 µM [falling, full curve]","1 µM [falling, full curve]"
COCCCn1c(N)c(C(=O)NCCC(C)C)c2nc3ccccc3nc21,"35.5 µM [falling, single point]","25.1 µM [falling, single point]"
C(#CCN1CCCC1)CN1CCCC1,"3.55 µM [rising, partial curve, poor fit]",–
COc1ccc2[nH]c3c(c2c1)CCNC3,"0.00562 µM [falling, full curve, poor fit]",–
O=c1[nH]sc2cc(F)ccc12,"22.4 µM [falling, single point]","3.16 µM [falling, single point]"
COc1cccc(-n2c(SCC(=O)c3ccc(Cl)cc3)nc3c([nH]c4ccccc43)c2=O)c1,"7.08 µM [falling, partial curve]","11.2 µM [falling, partial curve]"
CN(C)S(=O)(=O)c1ccc(C(=O)NNc2nc(-c3ccccc3)c3cc(Br)ccc3n2)cc1,"31.6 µM [rising, single point]","25.1 µM [rising, partial curve]"
CS(=O)(=O)Nc1ccc(Cc2noc(-c3ccc4[nH]cc(CCN)c4c3)n2)cc1,"1 µM [falling, full curve]",–
Cc1ccc(NC(=O)COc2ccc(-n3ccnc3)cc2)cc1Cl,"11.2 µM [rising, partial curve]","5.01 µM [rising, partial curve]"
O=CC(Cl)P(=O)(N1CCCCC1)N1CCCCC1 (centres undefined),"35.5 µM [rising, single point]",–
CCNc1nc(Cl)nc(NCC)n1,–,"35.5 µM [falling, single point]"
COc1ccccc1OP(=O)(Nc1cccnc1)Oc1ccccc1OC,"22.4 µM [rising, single point]",–
C=CCN1C(=O)C2(C(C(=O)OCC)=C(N)Oc3c2c(=O)oc2ccccc32)c2ccccc21 (centres undefined),"3.55 µM [rising, single point]",–
O=C1/C(=C\c2ccc3c(c2)OCO3)N2CCC1CC2,–,"14.1 µM [rising, partial curve, poor fit]"
COc1cc(CC(C)N)c(OC)cc1I (centres undefined),"0.00141 µM [falling, full curve, poor fit]",–
Cc1cc(C(C)(C)C)cc(C)c1CC1=NCCN1,"7.94 µM [falling, single point]","4.47 µM [falling, partial curve, poor fit] and 200 nM [falling, full curve, poor fit]"
